Values from PubChem BioAssay AID504764 (Drosophila RNAi Screening Center, 2011)

- Aim: 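Knock-downs that raise or lower a Notch target reporter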 (primary screen)
- Cell system: Drosophila Kc167 cells
- Reagents: long dsRNA against Drosophila genes
- Duration: about 5 days (4 days dsRNA, then 24 h after transfection)
- Treatment: transfection of constitutively active membrane-tethered Notch lacking the extracellular domain, read 24 h later
- Measured: 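Firefly luciferase from an E(spl)m3 reporter with active Notch, plus control-promoter and uninduced reporter wells for normalisation; unnormalised counts, duplicate wells a and b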
- Direction: induced reporter light, run 1, well a and induced reporter light, run 1, well b: higher = more light from the Notch target reporter with active Notch; control promoter light, run 1, well a and control promoter light, run 1, well b: higher = more light from the viral control promoter (cell number, transfection, viability); uninduced reporter light, run 1, well a: higher = more light from the Notch target reporter without active Notch
- Rule for the call: 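Hit if the duplicate-averaged log2 ratio of induced to control-promoter light gives a plate-wise z beyond ±2, or induced to uninduced beyond ±1.8; weak-control or discordant-duplicate wells dropped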
- Meaning of the calls: active = modifier hit (raised or lowered Notch signal); inactive = not a hit
The screen tested about 22,000 reagents; shown is a random part of those with a known target gene and a result. Over the whole deposit, 403 (1.9%) got an active call. 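Unnormalised raw counts per well; ratio z-scores behind the hit calls and whether each hit raises or lowers signal are not deposited.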 Entries without a mark were called inactive. The record does not give: the amount of reagent.

predicted target | amplicon | induced reporter light, run 1, well a | induced reporter light, run 1, well b | control promoter light, run 1, well a | control promoter light, run 1, well b | uninduced reporter light, run 1, well a
Prosalpha2 (Proteasome alpha2 subunit) | DRSC16798 | 88550 | 78125 | 80535 | 53665 | 5225
CG7377 | DRSC10830 | 1.53e5 | 1.26e5 | 3.16e5 | 1.80e5 | 7160
CycB (Cyclin B) | DRSC04605 | 80535 | 81890 | 56295 | 70305 | 5770
CG7239 | DRSC03038 | 9165 | 9270 | 8350 | 8255 | 2875
l(3)72Dn (lethal (3) 72Dn) | DRSC10468 | 80050 | 93685 | 57390 | 62545 | 6030
CR18166 (pseudo) | DRSC17260 | 62445 | 64700 | 80865 | 93030 | 4538
CR18166 (pseudo) | DRSC18147 | 1.41e5 | 1.43e5 | 2.54e5 | 3.14e5 | 11730
twy (twitchy) | DRSC10562 | 1.37e5 | 1.27e5 | 1.64e5 | 1.45e5 | 7600
CG14154 | DRSC10156 | 1.36e5 | 1.35e5 | 2.07e5 | 1.89e5 | 7865
aos (argos) | DRSC11323 | 1.84e5 | 2.16e5 | 2.60e5 | 2.51e5 | 9795
mEFTs (mitochondrial translation elongation factor Ts) | DRSC02953 | 2.42e5 | 2.24e5 | 2.34e5 | 2.59e5 | 16000
CG5569 | DRSC04514 | 1.86e5 | 1.63e5 | 1.94e5 | 1.91e5 | 13215
CG11951 | DRSC14442 | 1.27e5 | 1.20e5 | 2.03e5 | 1.84e5 | 11510
FASN1 (Fatty acid synthase 1) | DRSC00268 | 1.36e5 | 1.75e5 | 1.51e5 | 1.54e5 | 14755
CG17068 | DRSC20545 | 1.08e5 | 1.40e5 | 1.14e5 | 54600 | 9325
Rnp4F (RNA-binding protein 4F) | DRSC18706 | 2.48e5 | 1.90e5 | 2.51e5 | 2.50e5 | 17288
Tim17b2 (Translocase inner membrane 17) | DRSC03457 | 1.32e5 | 1.31e5 | 1.35e5 | 1.51e5 | 10150
Drp1 (Dynamin related protein 1) | DRSC00574 | 1.41e5 | 1.32e5 | 1.48e5 | 1.45e5 | 14392
Lpt (Lost PHDs of trr) | DRSC04291 | 1.78e5 | 1.68e5 | 1.64e5 | 1.51e5 | 10560
Lpt (Lost PHDs of trr) | DRSC04515 | 2.00e5 (active) | 2.47e5 | 1.69e5 | 1.71e5 | 13015
CG13894 | DRSC08364 | 12610 | 8710 | 14050 | 13600 | 3930
CG11159 | DRSC06050 | 1.11e5 | 1.01e5 | 1.65e5 | 1.78e5 | 5895
CG11368 | DRSC17778 | 1.04e5 | 1.22e5 | 1.96e5 | 2.46e5 | 8810
Gr66a (Gustatory receptor 66a) | DRSC10783 | 2.03e5 | 1.82e5 | 2.03e5 | 1.75e5 | 5560
CG31797 | DRSC02476 | 52440 | 51700 | 60105 | 51540 | 2980
CG31797 | DRSC02477 | 29960 | 37085 | 40165 | 31900 | 2360
eIF2beta (eukaryotic translation initiation factor 2 subunit beta) | DRSC11341 | 40370 | 36740 | 66045 | 48850 | 1200
tsg (twisted gastrulation) | DRSC20380 | 1.34e5 | 1.50e5 | 2.17e5 | 2.61e5 | 10865
CG17801 | DRSC15273 | 1.87e5 | 1.68e5 | 1.81e5 | 1.64e5 | 11925
CG6733 | DRSC16103 | 1.20e5 | 1.11e5 | 1.47e5 | 1.67e5 | 13405
CG1492 | DRSC19605 | 1.22e5 | 1.34e5 | 2.92e5 | 2.29e5 | 9280
CSN6 (COP9 signalosome subunit 6) | DRSC16593 | 1.59e5 | 1.41e5 | 1.24e5 | 1.17e5 | 14945
hry (hairy) | DRSC11353 | 24725 | 21475 | 13310 | 4665 | 7590
CG13360 | DRSC18536 | 1.85e5 (active) | 2.11e5 | 2.57e5 | 2.52e5 | 15545
CG14720 | DRSC14942 | 51680 | 52995 | 46240 | 40810 | 4070
mRpL12 (mitochondrial ribosomal protein L12) | DRSC10467 | 1.06e5 | 97920 | 61205 | 28070 | 8542
CG31528 | DRSC12003 | 1.90e5 | 2.48e5 | 3.29e5 | 2.66e5 | 18120
ZnT49B (Zinc transporter 49B) | DRSC07225 | 90895 | 1.15e5 | 1.49e5 | 91500 | 9370
dpr17 (defective proboscis extension response 17) | DRSC12885 | 1.78e5 | 2.14e5 | 2.68e5 | 2.62e5 | 16515
dpr17 (defective proboscis extension response 17) | DRSC14957 | 88765 | 78805 | 89235 | 49950 | 4015
dpr17 (defective proboscis extension response 17) | DRSC14958 | 73770 | 70365 | 51140 | 59000 | 3530
Phax (Phosphorylated adaptor for RNA export) | DRSC07066 | 1.28e5 | 1.22e5 | 1.83e5 | 1.71e5 | 13365
CG2812 | DRSC04319 | 1.95e5 | 1.76e5 | 1.45e5 | 1.62e5 | 12615
GstE5 (Glutathione S transferase E5) | DRSC06675 | 43435 | 41375 | 42360 | 44855 | 4820
CG30340 | DRSC05167 | 45770 | 63095 | 73995 | 80815 | 3110
Syt7 (Synaptotagmin 7) | DRSC17130 | 94580 | 87270 | 1.78e5 | 1.70e5 | 7480
Syt7 (Synaptotagmin 7) | DRSC17159 | 1.22e5 | 1.07e5 | 1.85e5 | 2.26e5 | 7595
CG8176 | DRSC16394 | 57510 | 59945 | 48735 | 41790 | 3770
Ant2 (Adenine nucleotide translocase 2) | DRSC19330 | 1.58e5 (active) | 1.65e5 | 2.97e5 | 2.59e5 | 13345
INPP5E (Inositol polyphosphate 5-phosphatase E) | DRSC09723 | 1.66e5 | 1.18e5 | 2.20e5 | 2.24e5 | 10280

Active calls, among the entries above:
predicted target | amplicon | induced reporter light, run 1, well a | induced reporter light, run 1, well b | control promoter light, run 1, well a | control promoter light, run 1, well b | uninduced reporter light, run 1, well a
Lpt (Lost PHDs of trr) | DRSC04515 | 2.00e5 (active) | 2.47e5 | 1.69e5 | 1.71e5 | 13015
CG13360 | DRSC18536 | 1.85e5 (active) | 2.11e5 | 2.57e5 | 2.52e5 | 15545
Ant2 (Adenine nucleotide translocase 2) | DRSC19330 | 1.58e5 (active) | 1.65e5 | 2.97e5 | 2.59e5 | 13345
